Results on four substances are retold here after patent US5574008A (Eli Lilly and Company, priority 1994, dated 1996).

HELM strings list residues between dots; [ac] is acetyl, [am] amide, other brackets name non-standard units.

The nature of series [1]: general procedure: Boc solid-phase peptide synthesis; MBHA resin (0.77 mmol/g) for C-terminal amides; PAM resin for C-terminal acids; symmetric anhydride (DCC initiated) or HOBT activation; double coupling. Particulars: whole synthesis, scale of the general procedure 0.5 mmol.
Series [2] can be described thus: general procedure: Boc solid-phase peptide synthesis; MBHA resin; symmetric anhydride (DCC initiated) or HOBT activation; double coupling. To be noted: whole synthesis, scale 0.5 mmol.

In series [1], “PEPTIDE1{A.E.G.T.F.T.S.D.V.S.S.Y.L.E.G.Q.A.A.K.E.F.I.A.W.L.V.K.G.R.G}$$$$V2.0” gave an isolated yield of 13%.
On the same count and under the same terms, in the case of “PEPTIDE1{E.G.T.F.T.S.D.V.S.S.Y.L.E.G.Q.A.A.K.E.F.I.A.W.L.V.K.G.R.G}$$$$V2.0” it was 11%; in that of “GLP-1(R26)(9-36)NH2 (SEQ ID NO:13) (EGTFTSDVSSYLEGQAAKEFIAWLVRGR; C-terminal amide)”, 4.1%.
Regarding “PEPTIDE1{E.G.T.F.T.S.D.V.S.S.Y.L.E.G.Q.A.A.K.E.F.I.A.W.L.V.K.G.R.[am]}$$$$V2.0”, the “final HPLC purity” value in series [2] (analytical HPLC) amounted to 60%. In series [2], this substance registered an isolated mass of 125 mg and an isolated yield of 11%.
